# Experiment: general procedure: Fmoc solid-phase peptide synthesis; MBHA resin
# Conditions: whole synthesis
substance,measurement,setting,value
[(DL) Lip] Glu - His - D.homoPhe - Arg - Trp - Gly - NH2,crude yield,,78%
same,crude HPLC purity,HPLC,82%
